# Where a name gives a salt, the structure may show the parent alone. This is one part of the list. Repeats in this data set agree poorly, so a single value says little.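 Cells: ReNCell VM human fetal ventral-midbrain neural progenitors, differentiated mitogen-free. Blinded raters compared doublecortin-stained (early neurons) or tyrosine hydroxylase-stained (dopaminergic neurons) images with untreated wells, where 0 means no change. After repeats and both raters were averaged, compounds scoring 2 or above became hits for retesting.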 Where a SMILES comes first, the peptide text is derived from it. Bridges are numbered along the chain shown (N, C = ends). [ ]: non-standard residue; d: D form. The star is where a group is joined. Ileψ(thiazoline)Cys = CC[C@H](C)[C@H](N)C1=N[C@H](C(=O)*)CS1; dOrn = NCCC[C@@H](N)C(=O)O
# What was measured:
# ReNCell VM [1] = test: neuronal differentiation score (DCX+ cell fraction vs untreated, manual image score) (score (-3 to 3)); higher = more neuronal differentiation; conditions: 2 uM, 2 weeks
# ReNCell VM [2] = test: dopaminergic neuron differentiation score (TH+ cell fraction vs untreated, manual image score) (score (0 to 3)); higher = more TH+ dopaminergic neuron differentiation; conditions: 2 uM, 4 weeks, BDNF 10 ng/ml + GDNF 10 ng/ml
smiles,measurement,setting,value
NC(=O)CC[C@H](NC(=O)[C@@H](N)CO)C(=O)O (H-Ser-Gln-OH),neuronal differentiation score,ReNCell VM [1]; library: Spectrum,inactive: 0
same,dopaminergic neuron differentiation score,ReNCell VM [2]; library: Spectrum,inactive: 0
NC(=O)N/N=C/c1ccc([N+](=O)[O-])o1 [Nitrofural],neuronal differentiation score,ReNCell VM [1]; library: Prestwick,inactive: 0
same,dopaminergic neuron differentiation score,ReNCell VM [2]; library: Prestwick,inactive: 0
CC(=O)O[C@H]1C[C@@H](OC(C)=O)C(C)(C)C2CC(=O)[C@]3(C)C(CC[C@@]4(C)[C@H](c5ccoc5)OC(=O)[C@H]5O[C@]543)[C@]21C (stereo not given in full),neuronal differentiation score,ReNCell VM [1]; library: Spectrum,inactive: 0
same,dopaminergic neuron differentiation score,ReNCell VM [2]; library: Spectrum,inactive: 0
COc1ccnc(C[S+]([O-])c2nc3cc(OC(F)F)ccc3[nH]2)c1OC (stereo not given),neuronal differentiation score,ReNCell VM [1]; library: Spectrum,inactive: 0
same,dopaminergic neuron differentiation score,ReNCell VM [2]; library: Spectrum,inactive: 0
S=C(S)N1CCCC1 [Ammonium pyrrolidinedithiocarbamate],neuronal differentiation score,ReNCell VM [1]; library: LOPAC,inactive: 0
same,dopaminergic neuron differentiation score,ReNCell VM [2]; library: LOPAC,inactive: 0
CCCCCCCCCCCCCc1ccco1,neuronal differentiation score,ReNCell VM [1]; library: Spectrum,inactive: 0
same,dopaminergic neuron differentiation score,ReNCell VM [2]; library: Spectrum,inactive: 0
CC(C)c1ccc(C(=O)c2cccs2)c(SCCCCCCCCN(C)C)n1,neuronal differentiation score,ReNCell VM [1]; library: Tocriscreen,inactive: 0
same,dopaminergic neuron differentiation score,ReNCell VM [2]; library: Tocriscreen,inactive: 0
C#C[C@]1(OC(C)=O)CC[C@H]2[C@@H]3CCC4=CC(=O)CC[C@@H]4[C@H]3CC[C@@]21C,neuronal differentiation score,ReNCell VM [1]; library: Spectrum,inactive: 0
same,dopaminergic neuron differentiation score,ReNCell VM [2]; library: Spectrum,inactive: 0
COc1cccc(OC)c1OCCNCC1COc2ccccc2O1 (stereo not given) [WB 4101 hydrochloride],neuronal differentiation score,ReNCell VM [1]; library: Tocriscreen,inactive: 1
same,dopaminergic neuron differentiation score,ReNCell VM [2]; library: Tocriscreen,inactive: 0
CN[C@H](CC(C)C)C(=O)N[C@H]1C(=O)N[C@@H](CC(N)=O)C(=O)N[C@H]2C(=O)N[C@H]3C(=O)N[C@H](C(=O)N[C@H](C(=O)O)c4cc(O)cc(O)c4-c4cc3ccc4O)[C@H](O)c3ccc(c(Cl)c3)Oc3cc2cc(c3O[C@@H]2O[C@H](CO)[C@@H](O)[C@H](O)[C@H]2O[C@H]2C[C@](C)(N)[C@H](O)[C@H](C)O2)Oc2ccc(cc2Cl)[C@H]1O [Vancomycin hydrochloride from Streptomyces orientalis],neuronal differentiation score,ReNCell VM [1]; library: LOPAC,inactive: 0
same,dopaminergic neuron differentiation score,ReNCell VM [2]; library: LOPAC,inactive: 0
Cc1cc(C2CCCCC2)n(O)c(=O)c1 [Ciclopirox ethanolamine],neuronal differentiation score,ReNCell VM [1]; library: Prestwick,inactive: 0
same,dopaminergic neuron differentiation score,ReNCell VM [2]; library: Prestwick,inactive: 0
CC(=O)[C@H]1CC[C@H]2[C@@H]3C[C@H](C)C4=CC(=O)CC[C@]4(C)[C@H]3[C@@H](O)C[C@]12C,neuronal differentiation score,ReNCell VM [1]; library: Spectrum,inactive: 0
same,dopaminergic neuron differentiation score,ReNCell VM [2]; library: Spectrum,inactive: 0
Nc1ccc(S(N)(=O)=O)cc1 [Sulfanilamide],neuronal differentiation score,ReNCell VM [1]; library: Prestwick,inactive: 0
same,dopaminergic neuron differentiation score,ReNCell VM [2]; library: Prestwick,inactive: 0
CC1(C)O[C@@H]2C[C@H]3[C@@H]4CCC5=CC(=O)C=C[C@]5(C)[C@H]4[C@@H](O)C[C@]3(C)[C@]2(C(=O)CO)O1,neuronal differentiation score,ReNCell VM [1]; library: Spectrum,inactive: 0
same,dopaminergic neuron differentiation score,ReNCell VM [2]; library: Spectrum,inactive: 0
S=C=Nc1ccc(N=C=S)cc1,neuronal differentiation score,ReNCell VM [1]; library: Spectrum,inactive: 0
same,dopaminergic neuron differentiation score,ReNCell VM [2]; library: Spectrum,inactive: 0
O=C1CC[C@@H](C(=O)O)N1,neuronal differentiation score,ReNCell VM [1]; library: Spectrum,inactive: 0
same,dopaminergic neuron differentiation score,ReNCell VM [2]; library: Spectrum,inactive: 0
COc1ccc([C@H]2Oc3cc(OC)cc(OC)c3C[C@H]2O)cc1,neuronal differentiation score,ReNCell VM [1]; library: Spectrum,inactive: 0
same,dopaminergic neuron differentiation score,ReNCell VM [2]; library: Spectrum,inactive: 0
Cc1ccc(Sc2cncc3sc(C(N)=O)cc23)cc1,neuronal differentiation score,ReNCell VM [1]; library: Tocriscreen,inactive: 0
same,dopaminergic neuron differentiation score,ReNCell VM [2]; library: Tocriscreen,inactive: 0
CCCCCCCCCCC[C@@H](C[C@@H]1OC(=O)[C@H]1CCCCCC)OC(=O)[C@H](CC(C)C)NC=O,neuronal differentiation score,ReNCell VM [1]; library: Spectrum,inactive: 0
same,dopaminergic neuron differentiation score,ReNCell VM [2]; library: Spectrum,inactive: 0
Nc1nc(=O)[nH]cc1F [Flucytosine],neuronal differentiation score,ReNCell VM [1]; library: Prestwick,inactive: 0
same,dopaminergic neuron differentiation score,ReNCell VM [2]; library: Prestwick,inactive: 0
CC(C)c1c(C(=O)Nc2ccccc2)c(-c2ccccc2)c(-c2ccc(F)cc2)n1CC[C@@H](O)C[C@@H](O)CC(=O)O,neuronal differentiation score,ReNCell VM [1]; library: Spectrum,inactive: 0
same,dopaminergic neuron differentiation score,ReNCell VM [2]; library: Spectrum,inactive: 0
O=C1C[C@@H](c2ccc(O[C@@H]3O[C@H](CO)[C@@H](O)[C@H](O)[C@H]3O)cc2)Oc2cc(O)ccc21 [liquiritin],neuronal differentiation score,ReNCell VM [1]; library: Natural,inactive: 0
same,dopaminergic neuron differentiation score,ReNCell VM [2]; library: Natural,inactive: 0
CC(C)c1ccccc1S(=O)(=O)c1cc(N)c2ncccc2c1[N+](=O)[O-],neuronal differentiation score,ReNCell VM [1]; library: Tocriscreen,inactive: 0
same,dopaminergic neuron differentiation score,ReNCell VM [2]; library: Tocriscreen,inactive: 0
Cc1ccc(S(=O)(=O)NC(=O)NN2CCCCCC2)cc1,neuronal differentiation score,ReNCell VM [1]; library: Spectrum,inactive: 0
same,dopaminergic neuron differentiation score,ReNCell VM [2]; library: Spectrum,inactive: 0
N[C@@H](CCCC(=O)O)C(=O)O [L-2-aminoadipic acid],neuronal differentiation score,ReNCell VM [1]; library: LOPAC,inactive: 0
same,dopaminergic neuron differentiation score,ReNCell VM [2]; library: LOPAC,inactive: 0
O=C(CCCCC(=O)Nc1c(I)cc(I)c(C(=O)O)c1I)Nc1c(I)cc(I)c(C(=O)O)c1I,neuronal differentiation score,ReNCell VM [1]; library: Spectrum,inactive: 0
same,dopaminergic neuron differentiation score,ReNCell VM [2]; library: Spectrum,inactive: 0
CC(=O)Nc1ccc(CC(=O)O)cc1,neuronal differentiation score,ReNCell VM [1]; library: Spectrum,inactive: 0
same,dopaminergic neuron differentiation score,ReNCell VM [2]; library: Spectrum,inactive: 0
O[C@H]1[C@H]2c3cc4c(cc3CN3CCC(=C[C@@H]1O)[C@H]23)OCO4 [Lycorine HCl],neuronal differentiation score,ReNCell VM [1]; library: Phytochemical,inactive: 0
same,dopaminergic neuron differentiation score,ReNCell VM [2]; library: Phytochemical,inactive: 0
O=S(=O)(O)CCS,neuronal differentiation score,ReNCell VM [1]; library: Spectrum,inactive: 0
same,dopaminergic neuron differentiation score,ReNCell VM [2]; library: Spectrum,inactive: 0
Clc1ccc2c(c1)CCc1cccnc1C2=C1CCNCC1,neuronal differentiation score,ReNCell VM [1]; library: Spectrum,inactive: 0
same,dopaminergic neuron differentiation score,ReNCell VM [2]; library: Spectrum,inactive: 0
COc1cccc2c1C(=O)c1c(O)c3c(c(O)c1C2=O)C[C@@](O)(C(=O)CO)C[C@@H]3O[C@H]1C[C@H](N)[C@H](O)[C@H](C)O1 [adriamycin],neuronal differentiation score,ReNCell VM [1]; library: Natural,inactive: 0
same,dopaminergic neuron differentiation score,ReNCell VM [2]; library: Natural,inactive: 0
COC(=O)[C@@H]1CC2=CC(=O)CC[C@]2(C)[C@@]23O[C@@H]2C[C@@]2(C)[C@@H](CC[C@@]24CCC(=O)O4)[C@H]13 [Eplerenone],neuronal differentiation score,ReNCell VM [1]; library: Tocriscreen,inactive: 0
same,dopaminergic neuron differentiation score,ReNCell VM [2]; library: Tocriscreen,inactive: 0
CCOc1nc2cccc(C(=O)O)c2n1Cc1ccc(-c2ccccc2-c2nnn[nH]2)cc1 [Candesartan],neuronal differentiation score,ReNCell VM [1]; library: Prestwick,inactive: 0
same,dopaminergic neuron differentiation score,ReNCell VM [2]; library: Prestwick,inactive: 0
O=C(NC(Cc1cc(=O)[nH]c2ccccc12)C(=O)O)c1ccc(Cl)cc1 (stereo not given) [Rebamipide],neuronal differentiation score,ReNCell VM [1]; library: Prestwick,inactive: 0
same,dopaminergic neuron differentiation score,ReNCell VM [2]; library: Prestwick,inactive: 0
COc1ccc2c(c1)C(=O)N(CCc1ccc(S(=O)(=O)NC(=O)NC3CCCCC3)cc1)C(=O)C2(C)C [Gliquidone],neuronal differentiation score,ReNCell VM [1]; library: Prestwick,inactive: 0
same,dopaminergic neuron differentiation score,ReNCell VM [2]; library: Prestwick,inactive: 0
Nc1nccc(-c2ccc3noc(-c4ccc(Cl)cc4)c3c2)n1 [PIM 1 Inhibitor 2],neuronal differentiation score,ReNCell VM [1]; library: Tocriscreen,inactive: -1
same,dopaminergic neuron differentiation score,ReNCell VM [2]; library: Tocriscreen,inactive: 0
NC(C(=O)O)c1cc(O)cc(O)c1 (racemic),neuronal differentiation score,ReNCell VM [1]; library: Tocriscreen,inactive: 0
same,dopaminergic neuron differentiation score,ReNCell VM [2]; library: Tocriscreen,inactive: 1
O=C1Cc2cc(CCN3CCN(c4nsc5ccccc45)CC3)c(Cl)cc2N1 [Ziprasidone  Hydrochloride],neuronal differentiation score,ReNCell VM [1]; library: Prestwick,inactive: 0
same,dopaminergic neuron differentiation score,ReNCell VM [2]; library: Prestwick,active: 3
O=C1OCCN1/N=C/c1ccc([N+](=O)[O-])o1 [Furazolidone],neuronal differentiation score,ReNCell VM [1]; library: Prestwick,inactive: 0
same,dopaminergic neuron differentiation score,ReNCell VM [2]; library: Prestwick,inactive: 0
CC[C@H](C)[C@H](N)C1=N[C@H](C(=O)N[C@@H](CC(C)C)C(=O)N[C@H](CCC(=O)O)C(=O)N[C@H](C(=O)N[C@H]2CCCCNC(=O)[C@H](CC(N)=O)NC(=O)[C@@H](CC(=O)O)NC(=O)[C@H](Cc3cnc[nH]3)NC(=O)[C@@H](Cc3ccccc3)NC(=O)[C@H]([C@@H](C)CC)NC(=O)[C@@H](CCCN)NC2=O)[C@@H](C)CC)CS1 [Bacitracin] ({Ileψ(thiazoline)Cys}-L[dE]IK[dOrn]I[dF]H[dD]N; lactam 4-C),neuronal differentiation score,ReNCell VM [1]; library: Prestwick,inactive: 0
same,dopaminergic neuron differentiation score,ReNCell VM [2]; library: Prestwick,inactive: 0

# 4 records drawn at random from those above:
smiles,measurement,setting,value
CC(C)c1c(C(=O)Nc2ccccc2)c(-c2ccccc2)c(-c2ccc(F)cc2)n1CC[C@@H](O)C[C@@H](O)CC(=O)O,neuronal differentiation score,ReNCell VM [1]; library: Spectrum,inactive: 0
O=C1Cc2cc(CCN3CCN(c4nsc5ccccc45)CC3)c(Cl)cc2N1 [Ziprasidone  Hydrochloride],neuronal differentiation score,ReNCell VM [1]; library: Prestwick,inactive: 0
O=C1C[C@@H](c2ccc(O[C@@H]3O[C@H](CO)[C@@H](O)[C@H](O)[C@H]3O)cc2)Oc2cc(O)ccc21 [liquiritin],neuronal differentiation score,ReNCell VM [1]; library: Natural,inactive: 0
O=C1OCCN1/N=C/c1ccc([N+](=O)[O-])o1 [Furazolidone],neuronal differentiation score,ReNCell VM [1]; library: Prestwick,inactive: 0

# An excerpt of these results, bar-delimited.
smiles | measurement | setting | value
O=C1OCCN1/N=C/c1ccc([N+](=O)[O-])o1 [Furazolidone] | dopaminergic neuron differentiation score | ReNCell VM [2]; library: Prestwick | inactive: 0
CC[C@H](C)[C@H](N)C1=N[C@H](C(=O)N[C@@H](CC(C)C)C(=O)N[C@H](CCC(=O)O)C(=O)N[C@H](C(=O)N[C@H]2CCCCNC(=O)[C@H](CC(N)=O)NC(=O)[C@@H](CC(=O)O)NC(=O)[C@H](Cc3cnc[nH]3)NC(=O)[C@@H](Cc3ccccc3)NC(=O)[C@H]([C@@H](C)CC)NC(=O)[C@@H](CCCN)NC2=O)[C@@H](C)CC)CS1 [Bacitracin] ({Ileψ(thiazoline)Cys}-L[dE]IK[dOrn]I[dF]H[dD]N; lactam 4-C) | neuronal differentiation score | ReNCell VM [1]; library: Prestwick | inactive: 0
